# Library screening results

The filed quantity is “Percent Effect” (%). The record does not define 0% and 100%; most values in the screen are far below 50% and negative numbers occur (in some assays of this library far below -100). The compounds are a random part of those screened.

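Whole-cell assay for inhibitors of Mycobacterium tuberculosis growth, labelled Cornell in the record; the read-out is not stated. The concentration is filed as 10 mM, unlikely as a test dose, so the dose is not known. Higher means stronger inhibition (inferred from two other growth screens of the library). Size under these conditions: about 53,000 compounds, about 900 of them at 50% or above in at least one test.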

- CCc1cc(CN(C)C(=O)c2cc(=O)[nH]c(=O)[nH]2)on1 : -55.89%
- O=C(Cc1ccc2c(c1)OCCCO2)Nc1nnn[nH]1 : -31.1%
- O=C(O)C(F)(F)F.[H][C@@]12C[C@H](C)O[C@@]1([H])CCN(S(=O)(=O)c1c(C)nn(C)c1C)C2 : 23.72%
- O=C(NCCNc1ncccn1)N1CCCC1c1ccncc1 (configuration not stated) : -1.978%
- CC(C)CN1CCN(S(=O)(=O)c2cn(C)cn2)Cc2cccnc21.O=C(O)C(F)(F)F.O=C(O)C(F)(F)F : 21.08%
- CCN(CC)c1ccc(C(=O)NCC2(C(N)=O)CCOCC2)cn1 : 4.217%
- O=C(Cc1ccccc1)N1CCC(c2nnc(-c3ccccn3)o2)CC1 : -7.275%
- CNCc1cc(F)ccc1Oc1ccc(F)cc1 : 4.182%
- CC(=O)N1CCc2c(nc(N(C)C)nc2NCCc2cccs2)C1 : 25.79%
- COC[C@@H]1CCC[C@@]12CN(Cc1ccc(C)s1)CCO2.O=C(O)C(F)(F)F : -3.945%
- COCCN1Cc2ccccc2C2(CCN(C(=O)c3ccco3)CC2)C1 : -4.281%
- Cc1nc(C(C)C)sc1C(=O)N(C)Cc1cnn(C)c1 : -33.37%
- Clc1cccc(-n2cnnn2)c1N1CCOCC1 : -39.93%
- COCCN(C)C[C@@H]1CN(C(=O)C(C)(C)c2ccccc2)C[C@@H]1CO : -6.681%
- N#Cc1ccc(N2CCCC3(CCN(c4cccnc4)CC3)C2)cc1.O=C(O)C(F)(F)F : -18.06%
- O=C(CCCN1CCCCC1)N1CCC(c2nnc[nH]2)CC1 : 0.271%
- CC(=O)N1CCN(CC(N)=O)CC(COc2ccccc2)C1 (configuration not stated) : 2.593%
- CCOc1ccccc1NC(C)C(=O)N(C)Cc1cccc(F)c1 (configuration not stated) : -32.46%
- Cc1cccc(OCCNC(=O)CN2CCc3cncnc3C2)c1 : -31.59%
- CCOc1cc(CNC(=O)C(C#N)c2nc(C)cs2)ccc1OC(F)F (configuration not stated) : -5.763%
- NC(=O)c1cnc2n1CCN(C(=O)c1ccc(Cn3cccc3)cc1)C2 : -14.41%
- CCc1nc(C(=O)N2CC(C)CN(C)c3ccccc32)c[nH]1 (configuration not stated) : -2.516%
- Cn1cc(C(=O)NCC2CCN(C(=O)NC3CCCCC3)CC2)cn1 : -68.41%
- CCN(C)C[C@@H]1CN(C(=O)c2cc(-c3ccc(F)cc3)n[nH]2)C[C@@H]1CO : 10.78%
- CC1CCCCN1C(=O)CCn1cnc2sccc2c1=O (configuration not stated) : 49.43%
- CCNC(=O)[C@@H]1C[C@@H](NC(=O)c2ccsc2)CN1CCCSC : 4.984%
- N#Cc1cccc(CN2Cc3nccn3CC(CN3CCCC3)C2)c1.O=C(O)C(F)(F)F.O=C(O)C(F)(F)F (configuration not stated) : 21.91%
- COC(=O)c1ccc(NC(C)c2ccc3c(c2)NC(=O)CO3)nn1 (configuration not stated) : -31.18%
- Cc1nc(CN2CCCC(c3cc(C(F)(F)F)[nH]n3)C2)cs1 (configuration not stated) : 6.513%

The first 3 entries again:

| compound | Percent Effect |
|---|---|
| `CCc1cc(CN(C)C(=O)c2cc(=O)[nH]c(=O)[nH]2)on1` | -55.89 |
| `O=C(Cc1ccc2c(c1)OCCCO2)Nc1nnn[nH]1` | -31.1 |
| `O=C(O)C(F)(F)F.[H][C@@]12C[C@H](C)O[C@@]1([H])CCN(S(=O)(=O)c1c(C)nn(C)c1C)C2` | 23.72 |

Data taken from ChEMBL document CHEMBL3988442, “University of Dundee, Small-Polar-MMV Screening Library” (2021).